24 compounds from PubChem BioAssay AID1794844 (National Center for Advancing Translational Sciences (NCATS), 2023) can be followed below.

Sequences of proteins named here, by UniProt entry; tags and fusion partners are left off. A change or cut given only in a name is not applied to a line headed by its entry.
UniProt C7C422: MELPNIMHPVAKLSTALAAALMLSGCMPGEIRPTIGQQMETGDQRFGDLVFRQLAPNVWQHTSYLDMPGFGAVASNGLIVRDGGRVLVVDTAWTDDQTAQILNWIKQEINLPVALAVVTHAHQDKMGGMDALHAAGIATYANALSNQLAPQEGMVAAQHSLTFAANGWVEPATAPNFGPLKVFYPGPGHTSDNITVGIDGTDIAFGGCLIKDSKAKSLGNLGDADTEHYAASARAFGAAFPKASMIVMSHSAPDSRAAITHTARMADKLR

Fewer than 10 of roughly 2,800 compounds were called active. Roughly 7% stayed inconclusive and do not appear here. Calls come from the whole dose curve; as a rule, active = well fitted inhibition curve with a large enough effect; inconclusive = small, poorly fitted or top-dose-only effect; inactive = no such curve, though single readings can be large or run the other way. The list shows a part of the results.

This assay deals with Metallo-beta-lactamase type 2 (Klebsiella pneumoniae) (UniProt C7C422). Briefly: qHTS to identify inhibitors of the New Delhi Metallo-beta-lactamase (NDM): Nitrocefin screen against the machine-based learning selections. Note: % of control where 0% means no effect. The note with it: NDM-1 enzyme, nitrocefin hydrolysis, absorbance 485 nm; activity, negative = inhibition: at the top concentration. The procedure, abridged: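 NDM-1 (2 nM final) in 50 mM HEPES pH 7.0, 1 uM Zn2SO4, 0.01% Tween20 was preincubated with compounds for >30 min. Nitrocefin (16.7 uM final) was read at 485 nm after 15 min, and meropenem (50 uM final) at 300 nm after 30 min.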
In general terms: In qHTS, concentration-response curves come from the screen itself.
Consider `Cn1ccnc1CNCC1(COc2cccnc2)C[C@@H](O)[C@@H](O)C1` (some centres undefined), for which the “activity, negative = inhibition” value is inactive: -13.7%.

Turning to `CN(Cc1cc(-c2cccs2)n[nH]1)C(=O)c1cn(CCN)nn1`, the “activity, negative = inhibition” value is inactive: 3.42%. Consider `C=CCNC(=O)N[C@H]1CCN(C(=O)CC(C)(C)C)[C@@H]1C(=O)N[C@@H](C(=O)OC)C(C)C`, for which the “activity, negative = inhibition” value is inactive: -4.68% [at 57.5 µM].

In the case of `CC(C)CN(C(=O)CC1COc2ccc(C(=O)N(C)C)cc2N1C)C1CC1` (centres undefined), the “activity, negative = inhibition” value is inactive: -5.95%. With `C[C@@H](NC(=O)[C@@]1(O)C[C@@H](O)[C@H](O)[C@@H](NC(=O)Nc2ccc(OC(F)(F)F)cc2)C1)C(N)=O`, the “activity, negative = inhibition” value is inactive: -5.65%. On to `CN1CCN(c2nc3c(s2)CN(C(=O)c2ccccc2)CC3)CC1`, for which the “activity, negative = inhibition” value was inactive: -1.94%. As for `O=C(O)[C@H]1C[C@@H](C(=O)NCc2ccncc2)CN(C2CCOCC2)C1`, the “activity, negative = inhibition” value is inactive: -6.91%.

On to `CN1[C@@H](CCC(=O)N2CCC(O)CC2)CNC(=O)[C@@H]2[C@H]1CCN2Cc1cccc(OC(F)(F)F)c1`, for which the “activity, negative = inhibition” value is inactive: -0.719%. For `COc1ccc2nc(CO[C@H]3CN(C4CCC4)C[C@H]3F)[nH]c2c1` the value was inactive: 0.43% [at 57.5 µM]. Consider `COCC(=O)N[C@H]1C[C@H]2C(=O)NC[C@@H](CCC(=O)N3CCN(c4ccccn4)CC3)N2C1`, for which the “activity, negative = inhibition” value is inactive: -4.65%.

Turning to `O=C(CN1CC2CC(C1)[C@H]1CCCC(=O)N1C2)NCc1ccc2c(c1)OCO2` (some centres undefined), the “activity, negative = inhibition” value was inactive: -0.216%. As for `O=C(NCc1csc(-c2cnccn2)n1)C1NCCc2[nH]cnc21` (centres undefined), the “activity, negative = inhibition” value is inactive: -2.75%. Regarding `CNC(=O)c1cccc(-c2cnc(Nc3cccc(F)c3)c3c2CCO3)c1`, the “activity, negative = inhibition” value was inactive: -0.624% [at 57.5 µM]. Turning to `COc1ccc(-c2cc(N3CCCC(NC(=O)c4cccn4C)C3)n[nH]2)cc1` (centres undefined), the “activity, negative = inhibition” value is inactive: -7.8%.

With `O=C(NC[C@H]1O[C@@H]2C[C@@H](CC(=O)N3CCOCC3)O[C@@H]2[C@@H]1O)Nc1cccs1`, the “activity, negative = inhibition” value was inactive: -9.01% [at 57.5 µM]. As to `C[C@@H](NS(=O)(=O)c1ccccc1)c1onc(-c2ccccc2)c1C(=O)O`, the “activity, negative = inhibition” value was inactive: -8.34% [at 57.5 µM].

Regarding `Cc1nc(C(C)C)sc1C(=O)N1CCC(=O)N(CC2CC2)C(C(C)C)C1` (centres undefined), the “activity, negative = inhibition” value was inactive: -3.58%. With `CC1=C[C@@H](CNC(=O)COc2ccccc2)[C@H](C(C)C)C[C@H]1Cc1nnc(-c2cncn2C)o1`, the “activity, negative = inhibition” value was inactive: -3.34%.

Take `CN1C[C@@H]2CCCN3CCC[C@@H]([C@H]23)[C@H]1CCCC(=O)Nc1ccc2c(c1)OCCO2`: the “activity, negative = inhibition” value is inactive: 5.52%. Take `COc1cccc([S+](=O)([O-])N2CCC3(CC2)C(=NC2CCCCC2)NC(=O)N3c2cccnc2)c1`: the “activity, negative = inhibition” value is inactive: -0.117%. The result for `CC[C@H]1CN(C(=O)Nc2ccccc2)CC[C@H]1CC(=O)N(C)CC#N` reads inactive: 4.78% [at 57.5 µM]; that for `COCC(=O)NC[C@@H]1C=C(C)[C@H](Cc2nc3ccc(C(=O)OC)cc3[nH]2)C[C@H]1C(C)C`, inactive: -9.29% [at 57.5 µM]; that for `C[C@H]1CCCN1C(=O)c1nnc(CNc2ccc(C(=O)O)cc2)n1-c1ccccc1`, inactive: -1.87% [at 57.5 µM]. As to `O=C(c1ccco1)N1C[C@@H]2C(CN(CC#Cc3ccccc3)C3CC3)[C@@H]2C1` (some centres undefined), the “activity, negative = inhibition” value is inactive: -6.11%.
